The list does not hold the whole screen: it is rich in T/C values a quarter to a half above the control, in often repeated tests (any T/C) and in doses without a T/C. Further doses and runs are listed elsewhere. T/C gives the treated animals as a percentage of the vehicle group. Some doses have a count of surviving animals in place of a T/C: the source files T/C as zero there, which appears to mark a toxic dose or a test without result, not a measured value. Some survivor counts are full or nearly so, which does not show that the dose was tolerated: survival well below the control is almost never listed, so the zero probably covers shortened survival too. Counts of survivors are from the toxicity check (mostly the fifth day) where no day follows; animals may have died later. Schedules are NCI's codes, read here as Q, the interval in days (D) or hours (H), X, the number of doses. Some doses were run more than once; their values stand side by side, smallest first. Some schedule codes hold Z or #, which are not explained here. Where survival is the endpoint, this PubChem deposit counts one and a half times the control or more as active, and values a quarter to a half above the control carry no call in these data; other NCI protocols may use other cut-offs.

This test has as its system L1210 leukemia ip in BDF1 mice, survival T/C. Nature of the test: NCI In Vivo Anticancer Drug Screen. Data for tumor model L1210 Leukemia (intraperitoneal) in B6D2F1 (BDF1) mice. The following applies: T/C endpoint: mean survival time, higher T/C = longer survival.
Setting [1] is: dose: 400.0 mg/kg/injection, schedule: Q04DX003 (ip), vehicle: Klucel (hydroxypropylcellulose) (HPC).
Where [2] appears, read: dose: 200.0 mg/kg/injection, schedule: Q01DX001 (ip), vehicle: other.
Setting [3] is: dose: 400.0 mg/kg/injection, schedule: Q01DX001 (ip), vehicle: other.
[4] abbreviates: dose: 200.0 mg/kg/injection, schedule: Q01DX009 (ip), vehicle: Klucel (hydroxypropylcellulose) (HPC).
Where [5] appears, read: dose: 400.0 mg/kg/injection, schedule: Q01DX009 (ip), vehicle: Klucel (hydroxypropylcellulose) (HPC).
The mark [6] stands for this setting: dose: 400.0 mg/kg/injection, schedule: Q01DX001 (ip), vehicle: saline.
[7] abbreviates: dose: 200.0 mg/kg/injection, schedule: Q01DX009 (ip), vehicle: saline.

For the molecule `COc1ccc(CCNC(=O)Cc2ccccc2[N+](=O)[O-])cc1OC`, the survivor count is 0 of 4 (dose: 100.0 mg/kg/injection, schedule: Q01DX001 (ip), vehicle: carboxymethylcellulose (CMC)); 0 of 4 (dose: 200.0 mg/kg/injection, schedule: Q01DX001 (ip), vehicle: carboxymethylcellulose (CMC)); 0 of 4 (dose: 400.0 mg/kg/injection, schedule: Q01DX001 (ip), vehicle: carboxymethylcellulose (CMC)).

On to `CC(S)CN1CC1` (configuration not stated), for which the survivor count under setting [1] is recorded as 2 of 6.

Regarding `C/C(=N\NC(N)=S)C(O)c1ccccc1` (configuration not stated), the survivor count (dose: 100.0 mg/kg/injection, schedule: Q01DX001 (ip), vehicle: other) is on record as 0 of 4; the survivor count under setting [2] is given as 0 of 4; the survivor count under setting [3] was 0 of 4.

With `CNC(=O)Oc1ccccc1C(N)=O`, the survivor count is reported as 2 of 6 under setting [4] and 0 of 6 under setting [5].

In the case of `CC1=NN(c2ccccc2)C(=O)/C1=C\c1ccccc1`, the survivor count under setting [5] was 4 of 6.

Take `O=[N+]([O-])CC(C[N+](=O)[O-])C(F)(F)C(F)(F)C(F)(F)F`: the survivor count reads like this: under setting [2], 0 of 4; under setting [3], 0 of 4.

In the case of `CC[C@H](CC[C@@H](C)[C@H]1CC[C@H]2[C@@H]3CC=C4C[C@@H](O)CC[C@]4(C)[C@H]3CC[C@]12C)C(C)C`, the survivor count reads like this: (dose: 100.0 mg/kg/injection, schedule: Q01DX001 (ip), vehicle: saline) 6 of 6; (dose: 200.0 mg/kg/injection, schedule: Q01DX001 (ip), vehicle: saline) 6 of 6; under setting [6], 4 of 6.

Turning to `O=C(Nc1ccc(NC(=O)Nc2cccc(C3=NCCCN3)c2)cc1)Nc1cccc(C2=NCCCN2)c1`, the T/C is 126 % of control (dose: 25.0 mg/kg/injection, schedule: Q01DX Z (ip), vehicle: carboxymethylcellulose (CMC)); 125 % of control (dose: 62.0 mg/kg/injection, schedule: Q01DX Z (oral), vehicle: carboxymethylcellulose (CMC)); 147 % of control (dose: 75.0 mg/kg/injection, schedule: Q01DX Z (ip), vehicle: carboxymethylcellulose (CMC)); 143 % of control (dose: 100.0 mg/kg/injection, schedule: Q01DX Z (ip), vehicle: carboxymethylcellulose (CMC)).

Consider `CC(C)(C)C1CCC(OS(C)(=O)=O)C(OS(C)(=O)=O)C1` (configuration not stated), for which the survivor count (dose: 50.0 mg/kg/injection, schedule: Q04DX003 (ip), vehicle: Klucel (hydroxypropylcellulose) (HPC)) was 1 of 6; the survivor count (dose: 100.0 mg/kg/injection, schedule: Q04DX003 (ip), vehicle: Klucel (hydroxypropylcellulose) (HPC)) is recorded as 0 of 6; the survivor count (dose: 200.0 mg/kg/injection, schedule: Q04DX003 (ip), vehicle: Klucel (hydroxypropylcellulose) (HPC)) is on record as 0 of 6; the survivor count under setting [1] is given as 0 of 6.

In the case of `N#CC(C#N)c1ccc(C(C#N)C#N)cc1`, the survivor count under setting [6] is 0 of 4.

For `CCC(=O)NC1=C(N2CC2)C(=O)C(NC(=O)CC)=C(N2CC2)C1=O`, the T/C is 135 % of control (dose: 0.62 mg/kg/injection, schedule: Q01DX009 (ip), vehicle: Klucel (hydroxypropylcellulose) (HPC)); 146 % of control (dose: 1.25 mg/kg/injection, schedule: Q04DX003 (ip), vehicle: Klucel (hydroxypropylcellulose) (HPC)); 135 % of control (dose: 2.5 mg/kg/injection, schedule: Q01DX001 (ip), vehicle: saline with Tween-80); 147 % of control (dose: 2.5 mg/kg/injection, schedule: Q01DX009 (ip), vehicle: Klucel (hydroxypropylcellulose) (HPC)); 145 % of control (dose: 5.0 mg/kg/injection, schedule: Q01DX001 (ip), vehicle: saline). In addition, the survivor count runs as follows: (dose: 10.0 mg/kg/injection, schedule: Q01DX009 (ip), vehicle: Klucel (hydroxypropylcellulose) (HPC)) 8 of 10; (dose: 19.0 mg/kg/injection, schedule: Q01DX001 (ip), vehicle: saline) 0 of 6; (dose: 20.0 mg/kg/injection, schedule: Q01DX001 (ip), vehicle: saline with Tween-80) 10 of 10; (dose: 20.0 mg/kg/injection, schedule: Q01DX009 (ip), vehicle: saline) 6 of 6; (dose: 20.0 mg/kg/injection, schedule: Q04DX003 (ip), vehicle: Klucel (hydroxypropylcellulose) (HPC)) 3 of 10; (dose: 38.0 mg/kg/injection, schedule: Q01DX001 (ip), vehicle: saline) 1 of 6. In addition, the survivor count is 7 of 10 (dose: 40.0 mg/kg/injection, schedule: Q01DX001 (ip), vehicle: saline with Tween-80); 6 of 6 (dose: 40.0 mg/kg/injection, schedule: Q01DX009 (ip), vehicle: saline); 3 of 10 (dose: 40.0 mg/kg/injection, schedule: Q04DX003 (ip), vehicle: Klucel (hydroxypropylcellulose) (HPC)); 2 of 6 and 4 of 6 (dose: 75.0 mg/kg/injection, schedule: Q01DX001 (ip), vehicle: saline); 2 of 6 and 4 of 6 (dose: 150.0 mg/kg/injection, schedule: Q01DX001 (ip), vehicle: saline); 0 of 6 (dose: 300.0 mg/kg/injection, schedule: Q01DX001 (ip), vehicle: saline).

For `Cc1ccc(S(=O)(=O)N/N=C/C(Br)=C(/Br)C(=O)O)cc1`, where the note is “dose: 100.0 mg/kg/injection, schedule: Q01DX009 (ip), vehicle: Klucel (hydroxypropylcellulose) (HPC)”, the T/C was 145 % of control. Besides, under setting [4], the survivor count was 4 of 6.

As to `CCCCCc1c(C)nc([N+](=O)[O-])nc1N`, the survivor count is given as 0 of 6 (dose: 12.5 mg/kg/injection, schedule: Q01DX001 (ip), vehicle: saline with Tween-80); 0 of 6 (dose: 25.0 mg/kg/injection, schedule: Q01DX001 (ip), vehicle: saline with Tween-80); 0 of 6 (dose: 50.0 mg/kg/injection, schedule: Q01DX001 (ip), vehicle: saline with Tween-80).

For the molecule `NC1=NCCCN1`, the survivor count is, setting by setting: (dose: 200.0 mg/kg/injection, schedule: Q04DX003 (ip), vehicle: saline with Tween-80) 2 of 6; (dose: 400.0 mg/kg/injection, schedule: Q04DX003 (ip), vehicle: saline with Tween-80) 0 of 6.

Turning to `CCN(CC)CCOC(=S)Nc1ccccc1`, the survivor count under setting [7] is 0 of 6 and the survivor count (dose: 400.0 mg/kg/injection, schedule: Q01DX009 (ip), vehicle: saline) is 0 of 6.

Consider `CC(C)c1oc(=O)cc2c1[C@@H](O)[C@H]1OC(=O)[C@@]3(C)[C@@H](O)[C@H]4O[C@H]4[C@@]2(C)[C@@H]13`, for which the survivor count by setting is: (dose: 80.0 mg/kg/injection, schedule: Q01DX001 (ip), vehicle: steroid suspending solution) 0 of 6; (dose: 100.0 mg/kg/injection, schedule: Q01DX001 (ip), vehicle: steroid suspending solution) 0 of 6; (dose: 200.0 mg/kg/injection, schedule: Q01DX001 (ip), vehicle: steroid suspending solution) 0 of 6; (dose: 400.0 mg/kg/injection, schedule: Q01DX001 (ip), vehicle: steroid suspending solution) 0 of 6.

Consider `CC(=O)N(N=O)c1ccc(Cl)cc1[N+](=O)[O-]`, for which the survivor count under setting [7] is recorded as 2 of 6.

In the case of `O=C(Nc1cccc(C2=NCCN2)c1)c1ccc(C(=O)Nc2cccc(C3=NCCN3)c2)c([N+](=O)[O-])c1`, the survivor count runs as follows: (dose: 10.0 mg/kg/injection, schedule: Q01DX Z (ip), vehicle: saline) 0 of 6; (dose: 15.0 mg/kg/injection, schedule: Q01DX Z (ip), vehicle: methylcellulose (MC)) 1 of 6; (dose: 30.0 mg/kg/injection, schedule: Q01DX Z (ip), vehicle: methylcellulose (MC)) 0 of 6; (dose: 60.0 mg/kg/injection, schedule: Q01DX Z (ip), vehicle: methylcellulose (MC)) 0 of 6.

Regarding `COC(=O)c1cc([N+](=O)[O-])cc2ccccc12`, the survivor count under setting [5] is given as 4 of 6.

Turning to `CN(C)C(=O)c1cc[n+](Cc2ccc(Cl)c(Cl)c2)cc1`, the survivor count runs as follows: (dose: 200.0 mg/kg/injection, schedule: Q04DX003 (ip), vehicle: saline) 1 of 6; (dose: 400.0 mg/kg/injection, schedule: Q04DX003 (ip), vehicle: saline) 0 of 6.

Values taken from PubChem BioAssay AID248 (DTP/NCI, 2004).
